Results are given in words; binding and its absence hold for the method and conditions named. In cells and extracts the contact can be indirect. Binding can be weak; no strength is given. Tags and fused reporters may be left off the sequences shown.

For this assay, the target named is EG1-eGFP (Rhizoctonia solani AG1-IA). In words: co-IP; co-expression in N. benthamiana leaves, NP-40 lysis buffer, anti-GFP agarose beads, 4°C 8 h, wash 10 mM Tris-HCl pH 7.5, 0.5 mM EDTA, 150 mM NaCl; blot with anti-HA and anti-GFP.

B1: OsGABA-T-HA (enzyme, UniProt Q7XN11 48-516)
chain: SSVPSPQYNSTEENGFKGHGMLAPFTAGWQSTDVHPLVIERSEGSYVYDIDGKKYLDSLAGLWCTALGGSEPRLVKAATEQLHKLPFYHSFWNRTTKPSLDLAKELLSMFTAREMGKVFFTNSGSEANDSQVKLVWYYNNALGRPDKKKFIARSKSYHGSTLISASLSGLPALHQKFDLPAPFVLHTDCPHYWRFHLPGETEEEFATRLANNLEELILKEGPETIAAFIAEPVMGAGGVIPPPKTYFEKVQAIVKKYDILFIADEVITAFGRLGTMFGSDMYNIKPDLVSMAKALSSAYVPIGAIMVSPEISDVIHSQSNKLGSFAHGFTYSGHPVACAVAIEALKIYQERNIPDHVKQISPRFQEGVKAFAGSPIVGEIRGVGLILGTEFADNKSPNDPFPAEWGVGAIFGAECQKRGMLVRVAGDNIMMSPPLIMTPDEVEELVSIYGDALKATEERVAELKSKKNN
Regarding B1, the binding result is recorded as “binds weakly”.

Source of the values: publication PMC9037289.
